Amino acid sequences for entries named in this document (tags omitted). A change or cut given only in a name is not applied to a line headed by its entry.
UniProt P0ACF0: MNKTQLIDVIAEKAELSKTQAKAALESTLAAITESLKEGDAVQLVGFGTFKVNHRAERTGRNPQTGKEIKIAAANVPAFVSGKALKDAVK

In PMC8063757, “The DNA-binding protein HU is a molecular glue that attaches bacteria to extracellular DNA in biofilms” (The Journal of Biological Chemistry, 2020):

Target: HU-A (Escherichia coli K-12) (UniProt P0ACF0)
Assay: EMSA
Details: EMSA on 0.7% or 1% agarose gels, EtBr stain; binding buffer, pH and temperature not stated; recombinant protein; residues 1-90; protein details: N-term 6xHis (MRGSHHHHHHGS); label: none (EtBr stain); folded or branched DNA

CCCTATAACCCCTGCATTGAATTCCTGTCTGATAA / GTAGTCGTGATAGGTGCAGGGGTTATAGGG / AACAGTAGCTCTTAATTCGAGCTCGCGCCCTATCACGACTA / TTTATCAGACTGGAATTCAAGCGCGAGCTCGAATAAGAGCTACTGT [4WJ DNA]
binding result: binds

For at least one entry, the source does not settle the construct or the ends of the probe. At least one verdict was read from the data and is not stated in words by the source.
